Data as given in PubChem BioAssay AID1224828 (NIAID, 2016)

- Test: 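Knock-downs that increase or decrease LPS-induced p65 nuclear translocation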 (primary screen)
- Cell system: mouse RAW264.7 G9 macrophage reporter cells (GFP-p65, Tnf promoter-mCherry)
- Knock-down reagent: siRNA pool against mouse genes, 100 nM
- Timing: 2 days siRNA transfection, then 40 min LPS before fixation
- Conditions: LPS (Salmonella minnesota R595) at 10 ng/ml
- Detection: 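Microscopy ratio of nuclear to perinuclear-ring GFP-p65 signal, scaled to the plate median; gene score is the average of two replicate robust z-scores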
- Scale: p65 translocation robust z-score: higher = more nuclear NF-kappaB p65 after LPS than the plate median; nuclear/cytoplasmic p65 ratio: higher = more nuclear NF-kappaB p65
- Call rule: 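Called active when z exceeds 3.3 or falls under -1.56 (median of Tlr4 controls), giving activity score of at least 50; no calls for control wells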
- Meaning of the calls: active = hit (p65 shift raised or lowered); inactive = no clear change
In all, the deposit lists about 17,000 reagents; shown is an unselected part. Of all reagents, 762 (4.5%) are marked active. 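Active calls include both raised and lowered p65 entry, mostly lowered; wells with fewer than 50 cells lack a z-score.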 Raw values are not corrected between plates. No sequences are given here.

Srp19 (GeneID 66384)
- p65 translocation robust z-score: -0.75
- nuclear/cytoplasmic p65 ratio, rep 1: 1.23
- nuclear/cytoplasmic p65 ratio, rep 2: 1.22
- low cell count flag: enough cells to score
- Call: inactive

Rlf (GeneID 109263)
- p65 translocation robust z-score: -0.06
- nuclear/cytoplasmic p65 ratio, rep 1: 1.6
- nuclear/cytoplasmic p65 ratio, rep 2: 1.61
- low cell count flag: enough cells to score
- Call: inactive

Alox12e (GeneID 11685)
- p65 translocation robust z-score: 1.92
- nuclear/cytoplasmic p65 ratio, rep 1: 1.87
- nuclear/cytoplasmic p65 ratio, rep 2: 2.01
- low cell count flag: enough cells to score
- Call: inactive

Prodh2 (GeneID 56189)
- p65 translocation robust z-score: 1.06
- nuclear/cytoplasmic p65 ratio, rep 1: 1.61
- nuclear/cytoplasmic p65 ratio, rep 2: 1.57
- low cell count flag: enough cells to score
- Call: inactive

Vmn1r216 (GeneID 171279)
- p65 translocation robust z-score: 1.47
- nuclear/cytoplasmic p65 ratio, rep 1: 1.57
- nuclear/cytoplasmic p65 ratio, rep 2: 1.4
- low cell count flag: enough cells to score
- Call: inactive

Polr2j (GeneID 20022)
- nuclear/cytoplasmic p65 ratio, rep 1: 1.4
- nuclear/cytoplasmic p65 ratio, rep 2: 1.13
- low cell count flag: fewer than 50 cells per well; well left out of scoring
- Call: inactive

Guca2a (GeneID 14915)
- p65 translocation robust z-score: -1.11
- nuclear/cytoplasmic p65 ratio, rep 1: 1.56
- nuclear/cytoplasmic p65 ratio, rep 2: 1.4
- low cell count flag: enough cells to score
- Call: inactive

Shc3 (GeneID 20418)
- p65 translocation robust z-score: 1.71
- nuclear/cytoplasmic p65 ratio, rep 1: 1.8
- nuclear/cytoplasmic p65 ratio, rep 2: 1.8
- low cell count flag: enough cells to score
- Call: inactive

S100a16 (GeneID 67860)
- p65 translocation robust z-score: -0.96
- nuclear/cytoplasmic p65 ratio, rep 1: 1.24
- nuclear/cytoplasmic p65 ratio, rep 2: 1.15
- low cell count flag: enough cells to score
- Call: inactive

Smim8 (GeneID 66291)
- p65 translocation robust z-score: 0.29
- nuclear/cytoplasmic p65 ratio, rep 1: 1.39
- nuclear/cytoplasmic p65 ratio, rep 2: 1.35
- low cell count flag: enough cells to score
- Call: inactive

Mfsd6 (GeneID 98682)
- p65 translocation robust z-score: -1.72
- nuclear/cytoplasmic p65 ratio, rep 1: 1.21
- nuclear/cytoplasmic p65 ratio, rep 2: 1.3
- low cell count flag: enough cells to score
- Call: active

Slc25a23 (GeneID 66972)
- p65 translocation robust z-score: 0.53
- nuclear/cytoplasmic p65 ratio, rep 1: 1.43
- nuclear/cytoplasmic p65 ratio, rep 2: 1.12
- low cell count flag: enough cells to score
- Call: inactive

Pramel39-ps (GeneID 331195)
- nuclear/cytoplasmic p65 ratio, rep 1: 1.1
- nuclear/cytoplasmic p65 ratio, rep 2: 1.48
- low cell count flag: fewer than 50 cells per well; well left out of scoring
- Call: inactive

Maob (GeneID 109731)
- p65 translocation robust z-score: 0.74
- nuclear/cytoplasmic p65 ratio, rep 1: 1.6
- nuclear/cytoplasmic p65 ratio, rep 2: 1.38
- low cell count flag: enough cells to score
- Call: inactive

Reprinted from above, 2 entries:
Alox12e (GeneID 11685)
- p65 translocation robust z-score: 1.92
- nuclear/cytoplasmic p65 ratio, rep 1: 1.87
- nuclear/cytoplasmic p65 ratio, rep 2: 2.01
- low cell count flag: enough cells to score
- Call: inactive

Prodh2 (GeneID 56189)
- p65 translocation robust z-score: 1.06
- nuclear/cytoplasmic p65 ratio, rep 1: 1.61
- nuclear/cytoplasmic p65 ratio, rep 2: 1.57
- low cell count flag: enough cells to score
- Call: inactive
